Results deposited as PubChem BioAssay AID1259308 (NCATS, 2017).
Purpose: 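Candidate targets for better recombinant protein yield in mammalian cells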 (primary screen). Cells: human HEK293 embryonic kidney cells stably expressing firefly luciferase (HEK-CMV-Luc2-Hygro). Reagent: single siRNA against human genes, 0.8 pmol siRNA per well. Duration: 72 h. Measured: 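Luciferase light (ONE-Glo) measured on one replicate plate set and viability (CellTiter-Glo) on the other, scaled to a negative control siRNA, with robust z-scores and luciferase per cell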. Reading the numbers: total luciferase, z-score: higher = more reporter protein produced. Call rule: 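Active when the median/MAD z-score for overall luciferase is greater than 3; a gene was taken forward for validation with new siRNAs if at least two of its three siRNAs passed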. Calls: active = raised luciferase; inactive = no rise.
Here is a random part of about 59,000 reagents. Of all reagents, about 1,510 (2.6%) got an active call. 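Calls use total luciferase alone and ignore viability, so some active siRNAs may act by altering cell number.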 The numbers tell different reagents against one gene apart. Not all columns of the deposit are shown.

MARVELD2 #1 scored total luciferase, z-score 0.697; inactive.
MARVELD2 #2 scored total luciferase, z-score -2.88; inactive.
Against MARVELD2 #3, the entry reads total luciferase, z-score -0.429; inactive.
Knock-down of ERP29 #1 resulted in: total luciferase, z-score 0.0977; inactive.
With knock-down of ERP29 #2 the results were total luciferase, z-score -1.99; inactive.
Knock-down of ERP29 #3 gave: total luciferase, z-score -0.629; inactive.
Depletion of ATP5MF #1 resulted in: total luciferase, z-score 0.0905; inactive.
With knock-down of ATP5MF #2, the screen gave total luciferase, z-score -0.406; inactive.
After knock-down of ATP5MF #3, the screen gave total luciferase, z-score 1.3; inactive.
BPIFB3 #1 scored total luciferase, z-score -0.361; inactive.
For BPIFB3 #2, the entry reads total luciferase, z-score 1.26; inactive.
With knock-down of BPIFB3 #3, the screen gave total luciferase, z-score 0.713; inactive.
Against CCNA1 #1, the values are total luciferase, z-score 1.84; inactive.
Knock-down of CCNA1 #2 came out at: total luciferase, z-score -1.59; inactive.
Against CCNA1 #3, the entry reads total luciferase, z-score -1.19; inactive.
Silencing of DUSP2 #1 gave: total luciferase, z-score -0.911; inactive.
After knock-down of DUSP2 #2 the results were total luciferase, z-score -0.607; inactive.
With knock-down of DUSP2 #3, the record shows total luciferase, z-score -0.0437; inactive.
After knock-down of ARL6 #1 the results were total luciferase, z-score -1.86; inactive.
ARL6 #2 gave total luciferase, z-score -0.829; inactive.
ARL6 #3 scored total luciferase, z-score 2.73; inactive.

A few values from the entries so far:
For “total luciferase, z-score”, ATP5MF #3 reads 1.3
CCNA1 #2, Call = inactive

The listing continues:
IFT27 #1 showed total luciferase, z-score 0.132; inactive.
For IFT27 #2 the deposit lists total luciferase, z-score 2.73; inactive.
IFT27 #3 scored total luciferase, z-score -0.0936; inactive.
After knock-down of FN3KRP #1, the screen gave total luciferase, z-score -0.239; inactive.
Against FN3KRP #2, the entry reads total luciferase, z-score -0.257; inactive.
After knock-down of FN3KRP #3, the screen gave total luciferase, z-score 0.844; inactive.
Against LRIT3 #1 the deposit lists total luciferase, z-score -0.89; inactive.
For LRIT3 #2, the entry reads total luciferase, z-score 0.133; inactive.
With knock-down of LRIT3 #3, the record shows total luciferase, z-score 0.0929; inactive.
After knock-down of ZNF165 #1, the record shows total luciferase, z-score 1.23; inactive.
Knock-down of ZNF165 #2 resulted in: total luciferase, z-score 0.542; inactive.
For ZNF165 #3, the entry reads total luciferase, z-score 0.411; inactive.
